Results reported in the supplement of paper PMC3334620.
Whole data set: some 33,000 sequences, median “E-score (-0.5 to 0.5)” near -0.0059, cut for the highest 2% near 0.26. The list shows a part of the results.

What follows are sequences tested against T1, Cin5 (UniProt P40917) (assay: PBM E-score (8-mer binding enrichment) (E-score (-0.5 to 0.5)); higher = stronger / more preferred TF binding). Details: protein concentration: 100 nM; construct: GST-full length.
T1 sequence: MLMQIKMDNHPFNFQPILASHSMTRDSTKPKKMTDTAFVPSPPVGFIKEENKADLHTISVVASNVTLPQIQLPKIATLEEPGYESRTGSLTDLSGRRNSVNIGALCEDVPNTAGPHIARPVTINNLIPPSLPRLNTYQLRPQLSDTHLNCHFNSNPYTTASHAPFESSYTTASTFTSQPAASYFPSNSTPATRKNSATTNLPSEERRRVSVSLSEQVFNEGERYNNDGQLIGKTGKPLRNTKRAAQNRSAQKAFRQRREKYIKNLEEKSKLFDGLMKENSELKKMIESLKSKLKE
Protocol: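 Universal 'all 10-mer' protein binding microarrays (Agilent AMADID 015681) probed with GST-tagged S. cerevisiae TFs (full-length or DBD) made by in vitro transcription/translation (PURExpress), about 100-200 nM. Bound TF was detected with fluorescent anti-GST. Each ungapped 8-mer (which stands for itself and its reverse complement) is scored by the PBM enrichment score (E-score), a modified Wilcoxon-Mann-Whitney statistic from -0.5 to +0.5, computed with the Universal PBM Analysis Suite. Scale: above 0.35 generally sequence-specific binding.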

Row | Sequence | PBM E-score
1 | CAGACCTC | -0.203
2 | GGGGGCAA | -0.206
3 | ACTCCCTG | -0.0621
4 | AGTCAACA | 0.142
5 | CAGGGCAA | 0.0426
6 | CATCAAGA | 0.0358
7 | AACGTAAC | 0.217
8 | AAAAGTCT | -0.132
9 | TGAATACA | 0.125
10 | CAAAATAG | 0.0505
11 | AGCATGGA | -0.135
12 | AGCGACAG | 0.00675
13 | AGTGCACC | 0.068
14 | ACACACAG | 0.0711
15 | CCAGGATA | 0.0426
16 | CATGCGGA | -0.16
17 | ACGTTATA | 0.158
18 | CAGCACGC | -0.0979
19 | CGCACCCA | -0.0536
20 | ATGATGAG | 0.152
21 | ACAACGGC | -0.0342
22 | GTCTACTA | 0.0678
23 | ACAACCCA | 0.177
24 | AGTGCATC | 0.034
25 | AAGGGAGG | -0.285

Row | Sequence | PBM E-score
26 | CGTCGACG | -0.16
27 | GTAGTTGA | 0.166
28 | AAGGCGGA | 0.0283
29 | CATCTTAA | 0.103
30 | GCACCTCA | 0.0524
31 | AACCTGAG | 0.0302
32 | CTCAACGC | -0.0933
33 | CGAGGTAG | -0.212
34 | AAATGACG | 0.103
35 | CGCTTCAG | -0.043
36 | GAAAGAGC | -0.0616
37 | CCCAAACG | -0.165
38 | ATGCACGG | -0.119
39 | CCCACGGC | -0.145
40 | GCAGGCCA | -0.116
41 | GAATATGA | 0.0468
42 | AGGGTCTA | -0.189
43 | ACCGTTGG | -0.177
44 | CATTAGTC | 0.0189
45 | ACATGAGG | -0.118
46 | CTTTTACA | 0.167
47 | ATCCCACA | -0.0391
48 | ACGGGGTC | -0.213
49 | ATTCAGCC | -0.0468
50 | CGAAAGAC | 1e-05

Row | Sequence | PBM E-score
51 | GGTGTAAC | 0.0363
52 | ACGGCGCA | -0.00841
53 | GATGTCCA | 0.0429
54 | TGAGTGAA | 0.105
55 | GTAGGGCA | 0.0381
56 | ATCCCTTG | -0.112
57 | GAGATACC | 0.124
58 | CAAGGAAG | -0.0363
59 | AGGCAGCG | -0.159
60 | ATCAGAAG | 0.121
61 | CACCTCAC | 0.0966
62 | CTTGTATC | 0.0672
63 | GCCGGACC | -0.38
64 | TACCGCGA | -0.0146
65 | GTGAAAGA | 0.0233
66 | AGTAGTTG | 0.173
67 | CTGACCTC | -0.0899
68 | AAATCGTG | 0.253
69 | AAAAAACG | 0.125
70 | GGAATTTA | 0.178
71 | AACCTCCC | -0.139
72 | CGGTGATA | 0.0249
73 | CTATCGCC | -0.181
74 | AAGCAACT | 0.0799
75 | CGCTAATC | 0.0702

Row | Sequence | PBM E-score
76 | CCGTTAGC | -0.101
77 | CAGATTCC | -0.0124
78 | ACCAATCT | 0.131
79 | CTGATGAC | 0.129
80 | GCGGATGA | 0.167
81 | ATACAATA | 0.278
82 | ACCCTCGC | -0.131
83 | CATGAGAG | 0.128
84 | AGGCGTTG | -0.0279
85 | ACACCTCC | -0.161
86 | GTGGATCA | -0.0561
87 | CACAGGGC | -0.243
88 | CACGGCAA | 0.0669
89 | AACATCAG | 0.0836
90 | TACGGAAA | 0.145
91 | CGTGCCCA | -0.107
92 | AAATGGTC | 0.0467
93 | TACCGACA | 0.141
94 | ATCTCAGC | 0.0315
95 | CGCATTCC | -0.179
96 | AAAGCCAT | 0.0541
97 | GTGAGTGA | -0.106
98 | ACCCTAAC | -0.0346
99 | GCCAAAGC | -0.162
100 | AATGATAG | 0.272

Retrieved one by one from above (3):
Row | Sequence | PBM E-score
94 | ATCTCAGC | 0.0315
79 | CTGATGAC | 0.129
85 | ACACCTCC | -0.161

(list continues)

Row | Sequence | PBM E-score
101 | ATCGTTTG | -0.0599
102 | GACTACAC | 0.0277
103 | ATCGCAGA | -0.0675
104 | ACTAAGCG | 0.149
105 | CACGGATC | -0.0237
106 | ACCTAAAT | 0.0373
107 | CTAACTTA | -0.00293
108 | GAACCAGC | -0.0522
109 | ATAGTGTG | 0.146
110 | GCACCTGC | -0.137
111 | GGTCAGGA | -0.0114
112 | GGATAGCA | 0.0689
113 | CTTCCTAC | -0.331
114 | CTGTTAGA | -0.0871
115 | GGGTCTAC | -0.154
116 | CAGGCAAG | -0.112
117 | CGCCGCCC | -0.154
118 | CTGCAGCA | 0.061
119 | CTTCAGTA | 0.0297
120 | TAAAACCA | -0.0738
121 | GCATGCAA | 0.142
122 | ACGCGCTA | -0.00527
123 | ATCTGCGC | -0.105
124 | CCAGGTCG | -0.0717
125 | AAGGTAGG | 0.0125

Row | Sequence | PBM E-score
126 | CGATCATA | 0.0918
127 | GAGGAAAA | -0.00181
128 | CAGGTCAA | -0.0444
129 | GGACGCCC | -0.28
130 | TGGTGAAA | -0.0469
131 | AACGGTCT | -0.119
132 | AAACACTG | 0.108
133 | ACGAGTGG | -0.21
134 | AGTGATTG | 0.115
135 | CCGGTGGA | -0.101
136 | ACGTCGTA | -0.113
137 | ATTCTAGA | 0.0325
138 | GCAAGACA | -0.0367
139 | GTTAATAA | 0.186
140 | CTGTCGAC | -0.14
141 | CCACGGCG | -0.0814
142 | TGGCCCAA | -0.158
143 | CCACTCTC | -0.133
144 | AGGCTCGA | -0.0641
145 | CCGACCAA | -0.00883
146 | GGGCAGCA | -0.227
147 | AGCCCATC | -0.13
148 | ACGACACT | -0.0341
149 | ACAGTCGC | -0.226
150 | GAGTGGAA | -0.0541

5 entries from above in a different format:
Row	Sequence	PBM E-score
91	CGTGCCCA	-0.107
92	AAATGGTC	0.0467
93	TACCGACA	0.141
94	ATCTCAGC	0.0315
95	CGCATTCC	-0.179

(list continues)

Row | Sequence | PBM E-score
151 | AGGGCCAA | -0.313
152 | AGCCAATC | -0.0481
153 | GCTATGAC | -0.0133
154 | ACGTCAGC | 0.394
155 | CCGTCACG | -0.0991
156 | TCCGAGCA | 0.00289
157 | ACCTAGCA | 0.0473
158 | CCAAAGGC | -0.269
159 | AAGATATG | 0.268
160 | GAAGGCAA | 0.0399
161 | CGTAGTAA | 0.156
162 | AATCCAGG | 0.172
163 | AATGCGAT | 0.0417
164 | ACAGACGA | 0.0695
165 | CACGTGAG | -0.0998
166 | GCCCGATA | -0.195
167 | CCGCAAAG | 0.0544
168 | ACGGTTTC | -0.124
169 | GCACATAC | -0.202
170 | ACGTCTCA | 0.124
171 | CTGGTCGA | -0.378
172 | AATTCGAA | 0.0371
